Test results from article PMC10113246.
The exact form of at least one protein or probe is not confirmed. At least one verdict rests on a figure or table, not on a statement of the authors.

System: ΔNp63α WT
Test: pull-down
Details: pull-down: 50 mM Tris pH 8.0, 150 mM NaCl, 0.1% Tween-20, 4 °C, protein translated in vitro, residues 1-586, protein details: Myc

Sequence	binding result (label: 5' biotin on S10)	binding result (label: 5' biotin on S8)
AAAATATGACAGACATGATGAGGCGGATGA (double strand) [KRT14 RE (pulldown)]	binds	–
GCCAGGAACATGTCCCAACATGTTGAGCCG (double strand) [p21 RE (pulldown)]	–	binds
